The nature of this assay: qHTS Assay for Lipid Storage Modulators in Drosophila S3 Cells.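 For cell number change: cells counted by Cell Tracker Red CMTPX staining in the red channel.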 The following applies: BODIPY lipid droplet fluorescence, 18-24 h; for cell number change: measured here: cell count max response, cells fed with added oleic acid. Put shortly:
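Laser-scanning cytometry quantifies lipid droplet accumulation (500–530 nm total intensity; droplet/cell object ratio) in oleic acid-fed (400 uM added) Drosophila S3 cells treated with a concentration series. 20 uM Triacsin C defined 100% inhibition.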

[1] abbreviates: measured here: lipid fluorescence (Fed channel) AC50, cells fed with added oleic acid.
[2] abbreviates: measured here: cell number channel AC50, cells fed with added oleic acid.

SMILES strings stand for the structures. Some of the results follow. Shown are side measurements of this screen, not its main read-out; they come without a call. The list favours compounds with an active or inconclusive main result. Words in brackets tell the shape of the fitted curve; partial curves, single points and poor fits give uncertain potencies.

`CCOc1ccc(C2C(C(=O)c3ccc(C)o3)=C(O)C(=O)N2CCN2CCOCC2)cc1OC` (stereo unspecified): the cell number change was 0.978%.

`COc1ccc(CCNC(=O)COc2ccc3c(c2)OCO3)cc1`: the cell number change is -18.2%. For the same molecule, the AC50 under setting [1] is 29.1 µM [falling, single point].

As for `Cc1ccc(C(=O)CNc2cccc([N+](=O)[O-])c2)cc1`, the cell number change came to 26.3%.

`CCN(CC(=O)N1CCCC1)S(=O)(=O)c1ccc(Br)cc1`: the cell number change was found to be 35.8%.

Regarding `Cc1cc(NS(=O)(=O)c2ccc(NC(=O)CCCOc3cccc(C)c3C)cc2)no1`, the cell number change is 41.5%. The half-maximal activity concentration (AC50) under setting [2] is 0.82 µM [rising, full curve, poor fit]. For the same molecule, under setting [1], the AC50 is 6.51 µM [rising, single point].

As for `CCCN1CCN(CCCNC(=O)C2CCCN(c3nnc(-n4cccc4)s3)C2)CC1` (stereo unspecified), the cell number change came to 19.1%. The AC50 under setting [1] was 13 µM [rising, partial curve].

As for `COc1ccc(-c2[nH]ncc2-c2ccc(Cl)cc2)c(O)c1`, the cell number change was -51.3%. In addition, the AC50 under setting [2] is 11.6 µM [falling, partial curve]. The AC50 under setting [1] is 18.4 µM [falling, single point].

As for `COc1ccccc1CCNS(=O)(=O)c1c(C)n(C)c(=O)n(C)c1=O`, the cell number change is -144%. Moreover, the concentration at half-maximal activity (AC50) under setting [2] is 29.1 µM [falling, partial curve]. Moreover, the AC50 under setting [1] was 23.1 µM [falling, partial curve].

Take `CCCc1cc(=O)n2[nH]c(SCc3ccc(Cl)cc3)nc2n1`: the cell number change is -26.8%. Further, the AC50 under setting [1] is 29.1 µM [falling, single point].

Consider `Cc1cccc(Oc2ccc(NC(=O)c3ccccc3C(=O)O)cc2)c1C`, for which the cell number change turned out to be 59.1%. The AC50 under setting [2] was 20.6 µM [rising, partial curve, poor fit].

Turning to `COc1ccc(C2=Nn3c(nnc3-c3ccccn3)SC2)cc1OC`, the AC50 under setting [1] was 29.1 µM [falling, single point].

On to `CN1C(=O)c2cccc(NCCCN3C(=O)c4ccccc4C3=O)c2C1=O`, for which the cell number change was determined as 7.23%. For the same molecule, the AC50 under setting [1] was 6.51 µM [rising, full curve].

In the case of `Cc1cccc(NC(=O)CSCC(=O)Nc2cccc3ncccc23)c1`, the cell number change was -50%. Moreover, under setting [2], the AC50 is 29.1 µM [falling, single point].

For the molecule `Cc1ccc(NC(=O)CNC(=O)c2ccc(C)o2)cc1`, the cell number change is -0.787%. Also, under setting [1], the AC50 is 29.1 µM [rising, single point].

`Cc1ccc(NC(=O)c2scc3c2CCCC3)cc1`: the cell number change was 32.6%. Besides, under setting [2], the AC50 was 5.8 µM [rising, partial curve]. Under setting [1], the AC50 was 20.6 µM [rising, partial curve].

On to `Cc1ccc(N2CC(C(=O)N3CCC(C(=O)Nc4nncs4)CC3)CC2=O)cc1` (stereo unspecified), for which the cell number change is -5.13%. The AC50 under setting [1] is 0.651 µM [falling, single point].

As for `Cc1nnc2ccc(-c3ccc(NS(=O)(=O)c4ccc(F)cc4F)cc3)nn12`, the cell number change is -38.8%. Moreover, the AC50 under setting [2] was 13 µM [falling, partial curve].

Regarding `CC(C)CN(C(=O)CSc1nnc(-c2ccco2)o1)c1c(N)n(Cc2ccccc2)c(=O)[nH]c1=O`, the cell number change came out at 18.6%. The AC50 under setting [2] is 0.366 µM [rising, partial curve, poor fit]. The AC50 under setting [1] was 1.64 µM [rising, partial curve, poor fit].

Take `COc1ccc(NC(=O)CSc2nnc(C3CC3)n2C)cc1S(=O)(=O)N1CCCCC1`: the cell number change was -9.87%. The AC50 under setting [1] is 4.11 µM [falling, single point].

With `O=S(=O)(NCCn1ccc2ccccc21)c1ccccc1`, the cell number change was determined as 3.43%. Besides, the AC50 under setting [1] was 20.6 µM [falling, partial curve].

On to `N#C/C(=C\c1cccnc1)c1ccc([N+](=O)[O-])cc1`, for which the cell number change was -8.55%. The AC50 under setting [1] was 16.4 µM [falling, single point].

As to `COc1cc(/C=N/n2c(C3CCCCC3)n[nH]c2=S)ccc1O`, the cell number change worked out at 12.8%. Also, under setting [1], the AC50 is 3.26 µM [rising, single point].

As to `Cn1ccnc1Sc1ccc(/C=N/NC(=O)c2ccccc2O)cc1[N+](=O)[O-]`, the cell number change is -19.3%.

`CSCCC(NC(N)=O)C(=O)NCc1cccc(Cl)c1` (stereo unspecified): the cell number change is -47.1%. Further, the AC50 under setting [2] is 3.66 µM [falling, full curve]. In addition, the AC50 under setting [1] is 29.1 µM [falling, single point].

For `CN(C)CCCN1CC(=O)N2[C@@H](Cc3c([nH]c4ccccc34)C2(C)C)C1=O`, the cell number change is -0.708%. Further, the AC50 under setting [1] was 0.13 µM [rising, full curve, poor fit].

Regarding `CSc1c(-c2ccccc2)nc2ccc(Cl)cc2c1C(=O)O`, the cell number change came out at 38.9%. Also, the AC50 under setting [1] is 0.13 µM [rising, partial curve, poor fit].

Turning to `CN(CCOC(=O)c1ccc2c(c1)OCO2)C(C)(C)C`, the cell number change was -2.65%.

`Cc1cc(NC(=O)CSCC(=O)Nc2nc3c(C)cccc3s2)no1`: the cell number change was -67%. Further, the AC50 under setting [2] was 23.1 µM [falling, partial curve]. The AC50 under setting [1] was 4.61 µM [falling, partial curve].

As to `COc1ccc(C)c2sc(NC(=O)C3CC3)nc12`, the cell number change worked out at 4.61%. For the same molecule, the AC50 under setting [1] was 0.00517 µM [rising, full curve, poor fit].

For the molecule `CC(C)C(NC(=O)c1c(F)cccc1F)C(=O)NCc1ccncc1` (stereo unspecified), the AC50 under setting [1] is 1.03 µM [rising, full curve, poor fit].

In the case of `O=C(Nc1ccc(Nc2ccccc2)cc1)c1ccc(Br)cc1`, the cell number change is -46.1%. In addition, under setting [2], the AC50 is 16.4 µM [falling, single point].

As for `O=C(Nc1ccc2nc(-c3cccs3)c(-c3cccs3)nc2c1)NC1CC1`, the AC50 under setting [1] is 0.00517 µM [rising, full curve, poor fit].

With `CC1CCCCC1NC(=O)COC(=O)c1ccc(N(C)C)cc1` (stereo unspecified), the cell number change is 4.93%. The AC50 under setting [1] was 1.84 µM [rising, partial curve].

Consider `CCOc1[nH]n(-c2ccc(Cl)cc2)c(=O)c1C=Nc1ccc(Cl)cc1`, for which the cell number change is -25.3%. For the same molecule, under setting [1], the AC50 is 32.6 µM [falling, single point].

With `CC(NC(=O)c1ccc(Cl)c(Cl)c1)c1ccc(-c2ccccc2)cc1` (stereo unspecified), the cell number change is -8.37%. Besides, under setting [1], the AC50 is 0.146 µM [falling, full curve, poor fit].

Consider `CN1C(c2ccc(F)cc2)=CS/C1=C(\C#N)c1nnc2n1-c1ccccc1SC2`, for which the cell number change is -11.3%. In addition, the AC50 under setting [1] is 14.6 µM [rising, single point].

For the molecule `Cc1ccc(-n2nnc3c(=O)n(CC(=O)N4CCOCC4)cnc32)cc1`, the cell number change is -20.3%. For the same molecule, the AC50 under setting [1] was 2.06 µM [falling, partial curve, poor fit].

Turning to `CCCn1c(N)c(C(=O)COC(=O)CCS(=O)(=O)c2ccc(C)cc2)c(=O)[nH]c1=O`, the cell number change was -12.7%. In addition, under setting [1], the AC50 was 0.146 µM [rising, full curve, poor fit].

As to `CN(CC(O)COc1ccc(S(=O)(=O)N2CCOCC2)cc1)C1CCCCC1` (stereo unspecified), the cell number change was -15.7%. In addition, under setting [1], the AC50 was 0.231 µM [falling, full curve, poor fit].

On to `Brc1ccc(-c2ccc(/C=N/Nc3nncc(-c4ccccc4)n3)o2)cc1`, for which the cell number change was 58.8%. Moreover, the AC50 under setting [2] was 16.4 µM [rising, partial curve]. Besides, the AC50 under setting [1] was 0.651 µM [rising, single point].

On to `O=C(NCc1ccc(F)cc1)c1cc(S(=O)(=O)N2CCCCC2)ccc1Cl`, for which the cell number change was found to be 4.79%. Further, under setting [1], the AC50 is 29.1 µM [falling, single point].

For the molecule `CCCC1(C(=O)OC)NC(c2ccc(OC)cc2OC)C2C(=O)N(c3cccc(C(C)=O)c3)C(=O)C21` (stereo unspecified), the cell number change was -9.94%. For the same molecule, the AC50 under setting [1] is 29.1 µM [rising, single point].

On to `CCCC1=NN2C(=N)/C(=C\c3ccc(SCc4ccco4)o3)C(=O)N=C2S1`, for which the cell number change is 16.3%.

As to `Cc1nc2c(cnn2-c2ccccc2)c(=O)n1/N=C/c1ccccc1`, the cell number change stood at 14.5%. Moreover, the AC50 under setting [1] is 0.13 µM [rising, full curve, poor fit].

On to `O=C(OCCN1CCOCC1)c1ccc(OCCN2CCOCC2)cc1`, for which the cell number change was 22.9%. In addition, under setting [1], the AC50 is 7.31 µM [falling, single point].

Turning to `CCOC(=O)C(=NCC1CCCO1)NNc1cc(Cl)ccc1Cl` (stereo unspecified), the cell number change is -0.0735%.

Turning to `O=C(CCC(=O)CCN1CCCCC1)CCN1CCCCC1`, the cell number change was -18.2%. Besides, the AC50 under setting [1] is 4.61 µM [falling, single point].

In the case of `O=Cc1ccc(-n2cncn2)cc1`, the cell number change is -2.04%. Further, under setting [1], the AC50 was 0.82 µM [falling, single point].

Consider `Cc1ccc(-n2c(SCC(=O)NCc3ccco3)nc3nc4c(cc3c2=O)COC(C)(C)C4)cc1`, for which the cell number change was 6.53%. The AC50 under setting [1] was 8.2 µM [rising, partial curve].

As for `O=C(Nc1ccc(NC(=O)C2CC2)nc1)c1cccnc1`, the cell number change was 70.1%. The AC50 under setting [2] was 16.4 µM [rising, partial curve]. Moreover, the AC50 under setting [1] was 4.11 µM [rising, single point].

`Cc1cccnc1NC(=O)c1cccc(S(=O)(=O)N2CCN(c3ccc(F)cc3)CC2)c1`: the cell number change was 8.22%.

With `O=C1CN(C(=O)COC(=O)CNC(=O)c2ccc(Br)o2)c2ccccc2N1`, the cell number change came out at 63.7%. For the same molecule, under setting [2], the AC50 is 32.6 µM [rising, single point]. Also, the AC50 under setting [1] is 5.8 µM [falling, single point].

Regarding `COC(=O)c1c(C)[nH]c(C(=O)OCC(=O)NCC(C)C)c1C`, the cell number change is -3.55%. The AC50 under setting [1] was 0.731 µM [rising, full curve, poor fit].

With `COc1cc2c(cc1OC)n(CC(=O)NC1CCCCCC1)n1c(C)cc(=O)nc21`, the AC50 under setting [1] was 6.51 µM [falling, single point].

Take `Cc1ccc(F)c(Cn2cnc3c(cnn3C(C)(C)C)c2=O)c1Cl`: the cell number change is -30.8%. Under setting [2], the AC50 was 0.00411 µM [falling, full curve, poor fit]. The AC50 under setting [1] was 32.6 µM [falling, single point].

As to `CCNc1nc(C)c(CN(C(C)=O)c2ccccc2)nc1C#N`, the cell number change is 14.5%. For the same molecule, the concentration at half-maximal activity (AC50) under setting [1] was 1.16 µM [rising, full curve, poor fit].

With `COc1ccc(NC(=O)Cc2nnc(SCC(=O)Nc3ccc(F)cc3)n2C)cc1`, the cell number change came to 9.83%. Moreover, the AC50 under setting [1] is 18.4 µM [rising, single point].

With `O=C(CCn1cnnn1)N1CCCC(Nc2ccc(F)c(F)c2)C1` (stereo unspecified), the cell number change is 18.5%. Moreover, the AC50 under setting [1] was 4.11 µM [rising, full curve].

With `Cc1cc(C)c(OCC(=O)OC(C)C(=O)NCc2ccccc2)c(C)c1` (stereo unspecified), the cell number change is -16.5%.

The values above are taken from PubChem BioAssay AID2685 (National Center for Advancing Translational Sciences (NCATS), 2010).
